Data published in paper doi:10.1101/2023.12.13.571451 (bioRxiv, 2023).
No constants are given. Whether binding was seen depends on the method and setting. For part of these data: Binding seen in cells or lysates may run through a third protein. Some binding calls cover weakened binding; strength is not graded here. Tags and fused reporters may be left off the sequences shown.

T1: Ugp1-V5 (S. cerevisiae) (UniProt P32861)
T1 sequence: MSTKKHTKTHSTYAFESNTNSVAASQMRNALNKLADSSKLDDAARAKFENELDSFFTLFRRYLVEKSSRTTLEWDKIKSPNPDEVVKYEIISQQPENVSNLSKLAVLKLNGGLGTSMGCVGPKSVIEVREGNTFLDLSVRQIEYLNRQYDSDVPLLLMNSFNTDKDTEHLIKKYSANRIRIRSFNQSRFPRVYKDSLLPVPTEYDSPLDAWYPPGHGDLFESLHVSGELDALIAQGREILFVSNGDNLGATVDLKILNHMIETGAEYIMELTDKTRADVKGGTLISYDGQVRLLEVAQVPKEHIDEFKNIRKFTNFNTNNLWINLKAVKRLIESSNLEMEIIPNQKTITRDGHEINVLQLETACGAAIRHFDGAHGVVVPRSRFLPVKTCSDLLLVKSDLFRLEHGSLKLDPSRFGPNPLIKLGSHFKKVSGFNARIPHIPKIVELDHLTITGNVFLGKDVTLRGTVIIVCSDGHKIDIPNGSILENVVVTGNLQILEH

T2: Gnd1^I366M-V5 (S. cerevisiae) (UniProt P38720)
T2 sequence: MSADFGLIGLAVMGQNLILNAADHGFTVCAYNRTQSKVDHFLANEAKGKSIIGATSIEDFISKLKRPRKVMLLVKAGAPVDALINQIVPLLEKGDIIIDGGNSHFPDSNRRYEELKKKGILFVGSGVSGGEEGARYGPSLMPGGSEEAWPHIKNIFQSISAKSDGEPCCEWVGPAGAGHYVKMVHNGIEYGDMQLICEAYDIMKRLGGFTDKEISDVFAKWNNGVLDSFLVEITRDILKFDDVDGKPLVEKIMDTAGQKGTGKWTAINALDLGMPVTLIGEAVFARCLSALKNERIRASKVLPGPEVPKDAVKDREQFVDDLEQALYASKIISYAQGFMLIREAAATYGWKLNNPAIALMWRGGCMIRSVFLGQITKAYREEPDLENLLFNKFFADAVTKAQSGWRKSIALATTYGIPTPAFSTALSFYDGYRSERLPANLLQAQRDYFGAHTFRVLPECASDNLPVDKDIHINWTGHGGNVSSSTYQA

T3: Gnd1^I366R-V5 (S. cerevisiae) (UniProt P38720)
T3 sequence: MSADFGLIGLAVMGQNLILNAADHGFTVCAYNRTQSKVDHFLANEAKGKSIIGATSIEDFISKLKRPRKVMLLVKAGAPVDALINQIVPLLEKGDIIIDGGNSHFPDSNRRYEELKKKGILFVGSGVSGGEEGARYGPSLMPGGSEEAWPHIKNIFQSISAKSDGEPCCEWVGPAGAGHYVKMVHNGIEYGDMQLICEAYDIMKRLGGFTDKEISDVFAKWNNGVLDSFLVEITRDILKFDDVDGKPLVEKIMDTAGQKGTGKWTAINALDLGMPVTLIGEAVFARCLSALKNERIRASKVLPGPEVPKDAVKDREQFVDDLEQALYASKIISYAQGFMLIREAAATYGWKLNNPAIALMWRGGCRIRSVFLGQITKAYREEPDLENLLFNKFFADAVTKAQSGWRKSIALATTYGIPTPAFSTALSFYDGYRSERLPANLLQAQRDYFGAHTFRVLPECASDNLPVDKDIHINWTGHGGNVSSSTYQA

T4: Tsa1^WT-HA (peroxiredoxin Tsa1, single C-terminal HA tag at the endogenous locus) (S. cerevisiae) (UniProt P34760)
T4 sequence: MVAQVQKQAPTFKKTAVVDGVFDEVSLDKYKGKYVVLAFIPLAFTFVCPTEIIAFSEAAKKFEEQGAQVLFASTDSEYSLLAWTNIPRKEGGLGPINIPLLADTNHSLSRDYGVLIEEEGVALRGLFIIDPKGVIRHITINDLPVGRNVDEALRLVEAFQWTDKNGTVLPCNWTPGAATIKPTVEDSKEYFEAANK

T5: Gnd1-V5 C365S mutant (S. cerevisiae) (UniProt P38720)
T5 sequence: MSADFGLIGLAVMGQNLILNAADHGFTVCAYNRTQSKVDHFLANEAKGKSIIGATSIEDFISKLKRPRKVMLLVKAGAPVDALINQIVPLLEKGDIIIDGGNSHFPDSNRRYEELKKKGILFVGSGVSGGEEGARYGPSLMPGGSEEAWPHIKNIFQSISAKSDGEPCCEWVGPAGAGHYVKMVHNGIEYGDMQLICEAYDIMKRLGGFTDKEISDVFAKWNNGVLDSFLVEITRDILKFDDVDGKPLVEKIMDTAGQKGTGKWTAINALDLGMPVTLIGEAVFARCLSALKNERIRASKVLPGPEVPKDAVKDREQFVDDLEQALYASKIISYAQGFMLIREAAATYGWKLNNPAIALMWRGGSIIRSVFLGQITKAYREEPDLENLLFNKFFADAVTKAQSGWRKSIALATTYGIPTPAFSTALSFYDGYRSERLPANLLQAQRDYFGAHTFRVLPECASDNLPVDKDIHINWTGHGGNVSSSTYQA


Experiments:
[1] = target: T1, Ugp1-V5 (S. cerevisiae); assay: co-IP
[2] = target: T2, Gnd1^I366M-V5 (S. cerevisiae); assay: non-reducing SDS-PAGE with immunoblot
[3] = target: T3, Gnd1^I366R-V5 (S. cerevisiae); assay: non-reducing SDS-PAGE with immunoblot
[4] = target: T4, Tsa1^WT-HA (peroxiredoxin Tsa1, single C-terminal HA tag at the endogenous locus) (S. cerevisiae); assay: non-reducing SDS-PAGE with immunoblot
[5] = target: T5, Gnd1-V5 C365S mutant (S. cerevisiae); assay: non-reducing SDS-PAGE with immunoblot

binding [1] | binding [2] | binding [3] | binding [4] | binding [5] | Binder
binds | binds | binds | binds | – | Tsa1^WT-HA (peroxiredoxin Tsa1, single C-terminal HA tag at the endogenous locus) (protein, UniProt P34760 1-196) MVAQVQKQAPTFKKTAVVDGVFDEVSLDKYKGKYVVLAFIPLAFTFVCPTEIIAFSEAAKKFEEQGAQVLFASTDSEYSLLAWTNIPRKEGGLGPINIPLLADTNHSLSRDYGVLIEEEGVALRGLFIIDPKGVIRHITINDLPVGRNVDEALRLVEAFQWTDKNGTVLPCNWTPGAATIKPTVEDSKEYFEAANK
binds | – | – | – | binds | Tsa1^C171S-HA (resolving cysteine mutant) (protein, UniProt P34760 1-196) MVAQVQKQAPTFKKTAVVDGVFDEVSLDKYKGKYVVLAFIPLAFTFVCPTEIIAFSEAAKKFEEQGAQVLFASTDSEYSLLAWTNIPRKEGGLGPINIPLLADTNHSLSRDYGVLIEEEGVALRGLFIIDPKGVIRHITINDLPVGRNVDEALRLVEAFQWTDKNGTVLPSNWTPGAATIKPTVEDSKEYFEAANK
